Source: the supplement of paper PMC10849652
The list shows a part of the results.

Amino acid sequences for entries named in this document (tags omitted). A change or cut given only in a name is not applied to a line headed by its entry.
UniProt A8MPS7: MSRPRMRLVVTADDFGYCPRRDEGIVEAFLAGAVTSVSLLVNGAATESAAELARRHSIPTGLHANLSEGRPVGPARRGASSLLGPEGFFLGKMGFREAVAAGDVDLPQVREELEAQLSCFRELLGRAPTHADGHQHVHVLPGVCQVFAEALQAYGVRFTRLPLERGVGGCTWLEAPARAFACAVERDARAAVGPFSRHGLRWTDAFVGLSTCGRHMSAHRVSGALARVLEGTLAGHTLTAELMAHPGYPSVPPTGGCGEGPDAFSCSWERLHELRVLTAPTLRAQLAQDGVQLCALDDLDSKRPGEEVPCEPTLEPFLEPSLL
UniProt Q9UIA9: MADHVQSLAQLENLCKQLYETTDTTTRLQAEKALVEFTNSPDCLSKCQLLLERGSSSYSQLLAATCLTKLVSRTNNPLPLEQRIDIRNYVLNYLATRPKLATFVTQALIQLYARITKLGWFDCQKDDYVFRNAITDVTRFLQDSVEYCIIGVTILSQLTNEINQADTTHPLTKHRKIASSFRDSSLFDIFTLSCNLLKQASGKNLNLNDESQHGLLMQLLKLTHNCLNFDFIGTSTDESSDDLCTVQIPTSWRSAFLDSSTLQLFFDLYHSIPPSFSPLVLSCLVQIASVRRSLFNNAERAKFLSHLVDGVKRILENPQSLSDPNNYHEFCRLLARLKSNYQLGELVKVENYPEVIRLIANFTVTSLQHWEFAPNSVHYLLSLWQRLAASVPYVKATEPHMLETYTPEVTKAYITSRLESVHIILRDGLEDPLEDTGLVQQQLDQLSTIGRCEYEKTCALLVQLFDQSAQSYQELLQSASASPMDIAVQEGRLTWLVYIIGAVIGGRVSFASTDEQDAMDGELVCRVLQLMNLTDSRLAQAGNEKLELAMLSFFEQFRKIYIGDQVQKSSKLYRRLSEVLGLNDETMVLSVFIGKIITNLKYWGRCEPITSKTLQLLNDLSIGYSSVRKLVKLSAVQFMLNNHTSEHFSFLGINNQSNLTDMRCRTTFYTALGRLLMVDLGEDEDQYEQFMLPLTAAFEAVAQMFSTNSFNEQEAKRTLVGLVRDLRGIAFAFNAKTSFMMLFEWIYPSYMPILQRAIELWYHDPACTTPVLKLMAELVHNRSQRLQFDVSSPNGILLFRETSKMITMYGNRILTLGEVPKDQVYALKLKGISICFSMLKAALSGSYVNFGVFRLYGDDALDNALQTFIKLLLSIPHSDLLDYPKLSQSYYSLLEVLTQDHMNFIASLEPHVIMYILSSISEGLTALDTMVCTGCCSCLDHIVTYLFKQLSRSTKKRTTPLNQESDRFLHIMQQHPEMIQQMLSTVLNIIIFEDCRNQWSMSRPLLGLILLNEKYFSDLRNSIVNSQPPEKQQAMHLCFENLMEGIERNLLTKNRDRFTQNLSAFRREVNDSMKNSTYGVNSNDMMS
UniProt Q8IX07: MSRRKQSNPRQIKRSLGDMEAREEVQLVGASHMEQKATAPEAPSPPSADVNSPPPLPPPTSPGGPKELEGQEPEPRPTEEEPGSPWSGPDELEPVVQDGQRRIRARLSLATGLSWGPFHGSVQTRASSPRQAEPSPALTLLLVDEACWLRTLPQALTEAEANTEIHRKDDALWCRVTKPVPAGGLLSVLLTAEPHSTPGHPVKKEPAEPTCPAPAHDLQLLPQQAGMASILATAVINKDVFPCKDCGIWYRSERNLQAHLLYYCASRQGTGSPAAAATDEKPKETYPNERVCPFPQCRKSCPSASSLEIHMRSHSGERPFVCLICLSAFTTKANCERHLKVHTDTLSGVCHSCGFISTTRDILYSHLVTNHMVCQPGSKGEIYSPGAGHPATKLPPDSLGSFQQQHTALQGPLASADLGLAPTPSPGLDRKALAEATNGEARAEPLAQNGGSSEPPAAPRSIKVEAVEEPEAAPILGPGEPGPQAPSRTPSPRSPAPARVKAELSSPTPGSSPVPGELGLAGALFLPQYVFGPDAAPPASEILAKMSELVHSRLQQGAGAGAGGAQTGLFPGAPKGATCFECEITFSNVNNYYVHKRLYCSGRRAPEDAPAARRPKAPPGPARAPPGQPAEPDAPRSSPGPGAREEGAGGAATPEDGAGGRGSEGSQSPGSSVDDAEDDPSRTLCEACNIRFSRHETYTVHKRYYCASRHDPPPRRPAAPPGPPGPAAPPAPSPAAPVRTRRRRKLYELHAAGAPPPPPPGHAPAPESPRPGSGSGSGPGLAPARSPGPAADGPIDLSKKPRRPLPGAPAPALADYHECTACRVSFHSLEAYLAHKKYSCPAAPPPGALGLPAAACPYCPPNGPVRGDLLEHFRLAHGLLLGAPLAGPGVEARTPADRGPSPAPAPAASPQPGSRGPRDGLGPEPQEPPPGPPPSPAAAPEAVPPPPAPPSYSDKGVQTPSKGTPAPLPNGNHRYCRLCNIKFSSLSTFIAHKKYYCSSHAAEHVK
UniProt Q8N5P1: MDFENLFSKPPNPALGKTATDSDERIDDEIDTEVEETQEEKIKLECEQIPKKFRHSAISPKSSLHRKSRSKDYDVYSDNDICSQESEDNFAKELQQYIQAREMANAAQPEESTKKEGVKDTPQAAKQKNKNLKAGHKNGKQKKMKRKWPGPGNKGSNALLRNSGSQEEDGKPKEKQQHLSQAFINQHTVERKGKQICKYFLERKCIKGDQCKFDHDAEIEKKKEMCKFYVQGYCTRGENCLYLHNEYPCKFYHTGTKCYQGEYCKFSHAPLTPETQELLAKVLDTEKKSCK
UniProt Q86WB0: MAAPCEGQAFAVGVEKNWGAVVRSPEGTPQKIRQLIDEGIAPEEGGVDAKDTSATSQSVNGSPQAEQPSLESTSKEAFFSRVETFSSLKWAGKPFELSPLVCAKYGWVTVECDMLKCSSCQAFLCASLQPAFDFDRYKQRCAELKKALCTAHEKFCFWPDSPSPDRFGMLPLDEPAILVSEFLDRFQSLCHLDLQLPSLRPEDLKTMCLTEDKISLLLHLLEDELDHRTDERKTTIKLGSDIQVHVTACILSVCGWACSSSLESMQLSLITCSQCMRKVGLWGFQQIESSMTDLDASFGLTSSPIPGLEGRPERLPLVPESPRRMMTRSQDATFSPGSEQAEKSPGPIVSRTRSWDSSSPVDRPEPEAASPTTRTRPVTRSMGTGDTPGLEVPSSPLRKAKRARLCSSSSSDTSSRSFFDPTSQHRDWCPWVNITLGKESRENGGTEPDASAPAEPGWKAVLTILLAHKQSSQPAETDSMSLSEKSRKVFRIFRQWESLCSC
UniProt Q9Y2Z4: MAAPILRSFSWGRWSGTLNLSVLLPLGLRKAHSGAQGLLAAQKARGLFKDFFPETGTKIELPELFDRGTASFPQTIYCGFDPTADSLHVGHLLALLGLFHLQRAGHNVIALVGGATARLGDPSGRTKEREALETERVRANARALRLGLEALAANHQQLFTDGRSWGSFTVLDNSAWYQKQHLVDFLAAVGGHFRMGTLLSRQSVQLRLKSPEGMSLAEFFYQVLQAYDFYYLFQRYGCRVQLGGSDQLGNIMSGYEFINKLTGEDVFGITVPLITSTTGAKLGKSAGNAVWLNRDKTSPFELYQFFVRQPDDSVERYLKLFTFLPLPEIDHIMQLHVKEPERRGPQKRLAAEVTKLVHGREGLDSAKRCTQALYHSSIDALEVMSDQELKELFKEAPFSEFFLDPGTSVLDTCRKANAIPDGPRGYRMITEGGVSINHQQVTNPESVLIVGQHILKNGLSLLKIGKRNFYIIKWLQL
UniProt Q9NQH7: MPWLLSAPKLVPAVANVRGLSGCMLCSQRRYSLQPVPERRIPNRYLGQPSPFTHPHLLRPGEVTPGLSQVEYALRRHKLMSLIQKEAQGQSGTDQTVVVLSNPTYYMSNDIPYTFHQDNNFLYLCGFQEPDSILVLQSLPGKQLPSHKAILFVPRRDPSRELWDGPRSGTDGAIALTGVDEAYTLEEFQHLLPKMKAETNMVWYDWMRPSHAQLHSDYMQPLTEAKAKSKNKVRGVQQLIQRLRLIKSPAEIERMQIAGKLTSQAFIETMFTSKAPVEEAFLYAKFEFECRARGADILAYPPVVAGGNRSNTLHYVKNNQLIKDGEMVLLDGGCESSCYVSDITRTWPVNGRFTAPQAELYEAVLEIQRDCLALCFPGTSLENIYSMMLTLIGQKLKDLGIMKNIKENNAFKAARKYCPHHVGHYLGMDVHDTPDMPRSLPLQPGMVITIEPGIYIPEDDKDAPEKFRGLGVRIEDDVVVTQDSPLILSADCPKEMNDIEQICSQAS
UniProt O60293: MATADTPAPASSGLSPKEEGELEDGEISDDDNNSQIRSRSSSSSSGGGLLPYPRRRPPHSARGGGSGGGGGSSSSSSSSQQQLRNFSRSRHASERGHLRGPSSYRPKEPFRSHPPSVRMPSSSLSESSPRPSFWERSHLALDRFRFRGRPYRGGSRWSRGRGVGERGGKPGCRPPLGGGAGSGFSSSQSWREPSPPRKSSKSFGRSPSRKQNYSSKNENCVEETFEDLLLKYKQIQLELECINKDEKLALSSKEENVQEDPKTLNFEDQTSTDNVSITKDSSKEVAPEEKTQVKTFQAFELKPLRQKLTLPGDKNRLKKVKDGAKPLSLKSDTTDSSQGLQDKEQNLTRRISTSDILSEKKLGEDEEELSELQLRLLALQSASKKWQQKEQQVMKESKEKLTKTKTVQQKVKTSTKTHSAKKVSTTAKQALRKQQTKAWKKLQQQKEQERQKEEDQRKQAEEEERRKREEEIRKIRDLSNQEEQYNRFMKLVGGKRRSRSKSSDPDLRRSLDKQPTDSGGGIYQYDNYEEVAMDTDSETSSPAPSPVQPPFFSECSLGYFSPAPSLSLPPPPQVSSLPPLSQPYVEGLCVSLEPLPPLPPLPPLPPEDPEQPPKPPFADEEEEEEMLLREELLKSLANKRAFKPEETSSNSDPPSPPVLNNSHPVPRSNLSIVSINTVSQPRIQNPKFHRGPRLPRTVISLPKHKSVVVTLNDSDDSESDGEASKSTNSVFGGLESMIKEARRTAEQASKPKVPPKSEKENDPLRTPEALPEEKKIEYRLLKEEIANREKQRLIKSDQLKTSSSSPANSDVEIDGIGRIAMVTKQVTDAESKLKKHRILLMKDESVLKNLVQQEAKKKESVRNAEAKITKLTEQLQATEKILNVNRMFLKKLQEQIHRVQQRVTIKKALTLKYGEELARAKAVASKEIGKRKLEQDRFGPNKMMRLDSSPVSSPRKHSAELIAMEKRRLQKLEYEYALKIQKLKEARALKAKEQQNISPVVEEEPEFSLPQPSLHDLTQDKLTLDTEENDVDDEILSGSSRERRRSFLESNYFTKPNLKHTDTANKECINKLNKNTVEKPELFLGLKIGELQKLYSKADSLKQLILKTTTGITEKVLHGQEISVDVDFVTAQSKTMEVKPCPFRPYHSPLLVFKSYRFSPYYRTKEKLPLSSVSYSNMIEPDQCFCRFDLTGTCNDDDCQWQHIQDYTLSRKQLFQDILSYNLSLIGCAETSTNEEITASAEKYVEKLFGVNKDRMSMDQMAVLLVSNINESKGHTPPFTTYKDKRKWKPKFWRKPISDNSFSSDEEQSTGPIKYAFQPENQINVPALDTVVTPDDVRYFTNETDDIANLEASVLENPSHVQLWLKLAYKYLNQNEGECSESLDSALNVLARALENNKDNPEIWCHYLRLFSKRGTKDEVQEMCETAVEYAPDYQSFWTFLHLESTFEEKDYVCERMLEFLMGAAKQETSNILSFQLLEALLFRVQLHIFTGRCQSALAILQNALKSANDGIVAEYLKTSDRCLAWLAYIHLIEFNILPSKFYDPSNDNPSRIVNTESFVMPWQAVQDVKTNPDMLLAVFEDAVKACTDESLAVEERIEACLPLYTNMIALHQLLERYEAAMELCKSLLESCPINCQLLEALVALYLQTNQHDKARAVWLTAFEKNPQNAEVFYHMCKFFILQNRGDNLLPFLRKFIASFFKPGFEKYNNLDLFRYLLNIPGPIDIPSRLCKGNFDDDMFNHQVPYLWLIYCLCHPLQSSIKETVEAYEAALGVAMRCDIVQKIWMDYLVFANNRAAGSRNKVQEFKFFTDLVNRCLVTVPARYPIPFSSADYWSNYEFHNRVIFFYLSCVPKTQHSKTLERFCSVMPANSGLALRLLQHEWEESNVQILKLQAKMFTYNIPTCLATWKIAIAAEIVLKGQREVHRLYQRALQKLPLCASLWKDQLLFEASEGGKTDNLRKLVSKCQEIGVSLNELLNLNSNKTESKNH
UniProt O95159: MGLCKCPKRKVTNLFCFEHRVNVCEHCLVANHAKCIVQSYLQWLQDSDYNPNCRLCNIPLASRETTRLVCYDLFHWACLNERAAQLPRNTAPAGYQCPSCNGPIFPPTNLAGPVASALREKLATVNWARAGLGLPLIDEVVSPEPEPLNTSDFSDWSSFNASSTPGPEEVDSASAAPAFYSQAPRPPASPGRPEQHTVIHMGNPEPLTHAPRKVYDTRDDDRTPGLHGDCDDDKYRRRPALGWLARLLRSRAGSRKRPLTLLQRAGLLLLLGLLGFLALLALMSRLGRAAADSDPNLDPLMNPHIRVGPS

Experiments:
Assay in all cases: log2 fold change, soluble protein after heating vs DMSO (PISA); higher = thermal stabilisation; K562 lysate, 10 uM; active = over 0.2 and 3.5 SD of the protein, either way, in both replicates (recomputed)
ibrutinib = compound: C=CC(=O)N1CCC[C@@H](n2nc(-c3ccc(Oc4ccccc4)cc3)c3c(N)ncnc32)C1 [ibrutinib]
How it was run: (§1)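 To prepare the extract, K562 pellets were dounce-homogenised in PBS pH 7.4 with 1 mM MgCl2, giving crude material at 1 mg/mL protein. This was treated with 10 μM compound for 30 min, then heated in aliquots for 3 min over 48°C-58°C before pooling and addition of NP-40 to 0.5% at 4°C. Centrifugation at 21,000xg for 90 min left soluble protein in the supernatant, which TMTpro 16plex LC-MS/MS quantified with equalised channel sums. Results are log-two fold changes in thermal stability compared with solvent controls, from duplicates.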

[1] = compound: CC(=O)c1cnc2ccc(-c3cc(Cl)c(O)c(Cl)c3)nc2c1N[C@H]1CC[C@H](CN(C)C)CC1
How it was run: as §1

ralimetinib = compound: CC(C)(C)Cn1c(N)nc2ccc(-c3[nH]c(C(C)(C)C)nc3-c3ccc(F)cc3)nc21 [ralimetinib]
How it was run: as §1

[2] = compound: CC(C)(O)CC(=O)NCCn1ccc2ncnc(Nc3ccc(Oc4cccc(C(F)(F)F)c4)c(Cl)c3)c21
How it was run: as §1

[3] = compound: CC(C)C1=C2N=C(C=C(N2N=C1)NCC3=CC=CC=C3)NCCCCCCN
How it was run: as §1

[4] = compound: CC1=C(C(CC(=O)N1)C2=CC=C(C=C2)C(F)(F)F)C(=O)NC3=C(C=C4C(=C3)C=NN4)F
How it was run: as §1

[5] = compound: CC1=C(C2=C(C=C1)C(=O)C3=CC=CC=C3N2CCCN)C
How it was run: as §1

[6] = compound: CC1=C(C=C(C=C1)NC(=O)C2=CC(=CC=C2)C(C)(C)C#N)NC3=CC4=C(C=C3)N=CN(C4=O)C
How it was run: as §1

[7] = compound: CC1=C(C=C(C=C1)NC(=O)C2=CC(=CC=C2)N(C)C)NC(=O)C3=CC=C(C=C3)O
How it was run: as §1

[8] = compound: CC1=CC=C(C=C1)SC2=C3C=C(SC3=CN=C2)C(=O)N
How it was run: as §1

vemurafenib = compound: CCCS(=O)(=O)Nc1ccc(F)c(C(=O)c2c[nH]c3ncc(-c4ccc(Cl)cc4)cc23)c1F [vemurafenib]
How it was run: as §1

[9] = compound: CCCS(=O)(=O)Nc1ccc(F)c(C(=O)c2c[nH]c3ncc(Cl)cc23)c1F
How it was run: as §1

barasertib = compound: CCN(CCCOc1ccc2c(Nc3cc(CC(=O)Nc4cccc(F)c4)[nH]n3)ncnc2c1)CCOP(=O)(O)O [barasertib]
How it was run: as §1

[10] = compound: CC[C@@H]1C(=O)N(C)c2cnc(Nc3ccc(C(=O)NC4CCN(C)CC4)cc3OC)nc2N1C1CCCC1
How it was run: as §1

volasertib = compound: CC[C@@H]1C(=O)N(C)c2cnc(Nc3ccc(C(=O)N[C@H]4CC[C@H](N5CCN(CC6CC6)CC5)CC4)cc3OC)nc2N1C(C)C [volasertib]
How it was run: as §1

[11] = compound: CCn1c(C(=O)N(C2CC2)C2CC2)cc2c3c(ncn3C)c(Nc3cc(C)n(C)n3)nc21
How it was run: as §1

[12] = compound: CCn1cc(-c2ccnc3[nH]c(-c4cccc(CN(C)C)c4)cc23)c(-c2ccc(NC(=O)N(C)C)cc2)n1
How it was run: as §1

[13] = compound: CN1CCC(CNc2ccc3ncc(-c4cccc(OC(F)(F)F)c4)n3n2)CC1
How it was run: as §1

saracatinib = compound: CN1CCN(CCOc2cc(OC3CCOCC3)c3c(Nc4c(Cl)ccc5c4OCO5)ncnc3c2)CC1 [saracatinib]
How it was run: as §1

sotrastaurin = compound: CN1CCN(c2nc(C3=C(c4c[nH]c5ccccc45)C(=O)NC3=O)c3ccccc3n2)CC1 [sotrastaurin]
How it was run: as §1

Measured: log2 fold change

ZER1 (UniProt Q7Z7L7)
inactive: ibrutinib 0.016 | [1] -0.058 | ralimetinib 0.088 | [2] -0.117 | [3] 0.026 | [4] 0.034 | [5] -0.036 | [6] 0.02 | [7] 0.081 | [8] 0.041 | vemurafenib 0.045 | [9] 0.011 | barasertib -0.074 | [10] 0.056 | volasertib -0.038 | [11] 0.082 | [12] -0.202 | [13] 0.056 | saracatinib -0.116 | sotrastaurin -0.037

YDJC (UniProt A8MPS7)
inactive: ibrutinib 0.024 | [1] 0.023 | ralimetinib -0.015 | [2] -0.064 | [3] -0.028 | [4] 0.052 | [5] -0.034 | [6] 0.011 | [7] 0.022 | [8] 0.021 | vemurafenib -0.022 | [9] 0.006 | barasertib 0.017 | [10] 0.01 | volasertib -0.038 | [11] -0.063 | [12] 0.012 | [13] 0.055 | saracatinib 0.024 | sotrastaurin 0.008

XPO7 (UniProt Q9UIA9)
inactive: ibrutinib 0.001 | [1] -0.019 | ralimetinib 0 | [2] -0.035 | [3] -0.021 | [4] -0.002 | [5] 0.002 | [6] 0.021 | [7] 0.024 | [8] -0.003 | vemurafenib -0.008 | [9] 0 | barasertib 0.012 | [10] -0.009 | volasertib 0 | [11] 0.018 | [12] -0.046 | [13] 0.017 | saracatinib 0.009 | sotrastaurin 0.015

ZFPM1 (UniProt Q8IX07)
inactive: ibrutinib 0.004 | [1] -0.034 | ralimetinib 0.013 | [2] -0.067 | [3] 0.02 | [4] 0.01 | [5] 0.003 | [6] 0.033 | [7] 0 | [8] -0.026 | vemurafenib 0.088 | [9] 0.007 | barasertib 0.031 | [10] -0.017 | volasertib 0.02 | [11] -0.042 | [12] -0.001 | [13] -0.021 | saracatinib 0.014 | sotrastaurin -0.009

ZC3H8 (UniProt Q8N5P1)
inactive: ibrutinib 0.057 | [1] -0.042 | ralimetinib 0.058 | [2] -0.005 | [3] 0.005 | [4] -0.078 | [5] -0.044 | [6] 0.018 | [7] -0.023 | [8] 0.074 | vemurafenib 0.008 | [9] 0.037 | barasertib 0.026 | [10] 0.014 | volasertib 0.018 | [11] -0.048 | [12] -0.021 | [13] 0 | saracatinib -0.003 | sotrastaurin -0.019

YTHDF1 (UniProt Q9BYJ9)
inactive: ibrutinib -0.029 | [1] 0.015 | ralimetinib 0.016 | [2] -0.05 | [3] 0.049 | [4] 0.001 | [5] -0.054 | [6] -0.249 | [7] 0.023 | [8] -0.064 | vemurafenib 0.11 | [9] 0.041 | barasertib 0.131 | [10] 0.01 | volasertib -0.013 | [11] -0.008 | [12] -0.015 | [13] -0.03 | saracatinib 0.141 | sotrastaurin 0.016

ZC3H11A (UniProt O75152)
inactive: ibrutinib 0.025 | [1] -0.1 | ralimetinib 0.019 | [2] -0.034 | [3] 0.025 | [4] 0.084 | [5] -0.016 | [6] 0.041 | [7] 0.041 | [8] -0.096 | vemurafenib 0.104 | [9] 0.084 | barasertib 0.055 | [10] 0.03 | volasertib -0.022 | [11] 0 | [12] 0.283 | [13] -0.182 | saracatinib -0.016 | sotrastaurin 0.013

ZC3HC1 (UniProt Q86WB0)
inactive: ibrutinib -0.021 | [1] 0.013 | ralimetinib 0.033 | [2] -0.004 | [3] -0.003 | [4] 0.012 | [5] 0.004 | [6] -0.002 | [7] 0.006 | [8] 0.013 | vemurafenib -0.006 | [9] 0.027 | barasertib -0.029 | [10] -0.036 | volasertib 0.015 | [11] 0.008 | [13] -0.075 | saracatinib -0.03 | sotrastaurin -0.022
active: [12] 0.253

XYLB (UniProt O75191)
inactive: ibrutinib 0.045 | [1] -0.087 | ralimetinib 0.038 | [2] -0.012 | [3] 0.022 | [4] 0.058 | [5] -0.042 | [6] 0.051 | [7] 0.093 | [8] 0.009 | vemurafenib 0.094 | [9] 0.023 | barasertib 0.018 | [10] 0.014 | volasertib -0.086 | [11] -0.006 | [12] 0.132 | [13] -0.049 | saracatinib -0.01 | sotrastaurin -0.019

YARS2 (UniProt Q9Y2Z4)
inactive: ibrutinib -0.01 | [1] -0.006 | ralimetinib 0.032 | [2] -0.037 | [3] 0.018 | [4] -0.04 | [5] -0.02 | [6] -0.036 | [7] -0.02 | [8] 0.028 | vemurafenib -0.032 | [9] 0.105 | barasertib 0.041 | [10] -0.102 | volasertib -0.015 | [11] -0.003 | [12] -0.018 | [13] 0.075 | saracatinib -0.039 | sotrastaurin 0.043

XPNPEP3 (UniProt Q9NQH7)
inactive: ibrutinib 0.025 | [1] 0.019 | ralimetinib 0 | [2] -0.014 | [3] 0.007 | [4] 0.039 | [5] 0 | [6] 0.04 | [7] -0.013 | [8] 0.014 | vemurafenib 0.037 | [9] -0.014 | barasertib -0.042 | [10] 0.046 | volasertib 0.049 | [11] -0.022 | [12] -0.032 | [13] 0.051 | saracatinib 0.013 | sotrastaurin -0.031

YJU2 (UniProt Q9BW85)
inactive: ibrutinib 0.062 | [1] 0 | ralimetinib -0.003 | [2] -0.014 | [3] -0.013 | [4] 0.028 | [5] 0.026 | [6] -0.039 | [7] 0 | [8] -0.041 | vemurafenib 0.032 | [9] -0.01 | barasertib 0.004 | [10] 0.09 | volasertib 0.001 | [11] 0.015 | [12] -0.057 | [13] 0.021 | saracatinib 0.011 | sotrastaurin 0.018

ZFC3H1 (UniProt O60293)
inactive: ibrutinib -0.019 | [1] 0.021 | ralimetinib 0.011 | [2] -0.023 | [3] -0.054 | [4] -0.002 | [5] -0.002 | [6] -0.034 | [7] -0.014 | [8] 0.018 | vemurafenib 0.044 | [9] 0.041 | barasertib 0.108 | [10] -0.003 | volasertib -0.048 | [11] 0.032 | [12] -0.04 | [13] 0.025 | saracatinib -0.099 | sotrastaurin 0.024

ZFPL1 (UniProt O95159)
inactive: ibrutinib 0.103 | [1] -0.179 | ralimetinib -0.054 | [2] 0.306 | [3] -0.077 | [4] 0.033 | [5] 0.028 | [6] 0.066 | [7] 0.014 | [8] -0.022 | vemurafenib -0.069 | [9] 0.102 | barasertib -0.166 | [10] -0.042 | volasertib -0.12 | [11] -0.063 | [12] 0.116 | [13] -0.034 | saracatinib -0.052 | sotrastaurin -0.058

2 successive records from above:
ZC3H8 (UniProt Q8N5P1)
inactive: ibrutinib 0.057 | [1] -0.042 | ralimetinib 0.058 | [2] -0.005 | [3] 0.005 | [4] -0.078 | [5] -0.044 | [6] 0.018 | [7] -0.023 | [8] 0.074 | vemurafenib 0.008 | [9] 0.037 | barasertib 0.026 | [10] 0.014 | volasertib 0.018 | [11] -0.048 | [12] -0.021 | [13] 0 | saracatinib -0.003 | sotrastaurin -0.019

YTHDF1 (UniProt Q9BYJ9)
inactive: ibrutinib -0.029 | [1] 0.015 | ralimetinib 0.016 | [2] -0.05 | [3] 0.049 | [4] 0.001 | [5] -0.054 | [6] -0.249 | [7] 0.023 | [8] -0.064 | vemurafenib 0.11 | [9] 0.041 | barasertib 0.131 | [10] 0.01 | volasertib -0.013 | [11] -0.008 | [12] -0.015 | [13] -0.03 | saracatinib 0.141 | sotrastaurin 0.016

Continuation:

YWHAQ (UniProt P27348)
inactive: ibrutinib -0.011 | [1] -0.001 | ralimetinib -0.007 | [2] 0.028 | [3] 0 | [4] -0.054 | [5] 0.007 | [6] -0.001 | [7] 0.01 | [8] 0.01 | vemurafenib -0.029 | [9] 0.009 | barasertib -0.023 | [10] 0.025 | volasertib 0.023 | [11] -0.003 | [13] -0.092 | saracatinib -0.012 | sotrastaurin -0.047
active: [12] 0.625

ZC2HC1A (UniProt Q96GY0)
inactive: ibrutinib -0.029 | [1] -0.006 | ralimetinib 0.037 | [2] -0.056 | [3] -0.038 | [4] -0.016 | [5] -0.076 | [6] 0.045 | [7] -0.003 | [8] 0.006 | vemurafenib 0.13 | [9] -0.032 | barasertib 0.078 | [10] 0.086 | volasertib 0.031 | [11] 0.035 | [12] -0.057 | [13] 0.117 | saracatinib -0.011 | sotrastaurin 0.016
